Assay [1] has as its target full length GFP-tagged human TLE1 (human) (UniProt Q04724). The experiment in a line: co-IP; A549 cells transfected with vector or GFP-TLE1; 1% Nonidet P-40 lysis buffer (20 mM Tris-HCl pH 7.4, 150 mM NaCl, 10% glycerol); immunoprecipitated with anti-GFP-agarose; blotted with anti-AES and anti-GFP.
The target of assay [2] is T1, N-terminally myc tagged cytoplasmic localized Bit1 (Bcl-2 inhibitor of transcription 1) (UniProt Q9Y3E5).
T1 sequence: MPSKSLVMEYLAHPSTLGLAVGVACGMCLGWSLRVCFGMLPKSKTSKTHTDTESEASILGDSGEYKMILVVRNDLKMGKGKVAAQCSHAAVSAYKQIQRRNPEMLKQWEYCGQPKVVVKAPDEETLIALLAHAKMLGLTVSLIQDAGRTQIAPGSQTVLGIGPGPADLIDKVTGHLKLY
Nature of the assay: co-IP; A549 cells transfected with N-terminally myc tagged Bit1 with or without GFP-TLE1; 1% Nonidet P-40 lysis buffer (20 mM Tris-HCl pH 7.4, 150 mM NaCl, 10% glycerol); immunoprecipitated with anti-Myc-agarose; blotted with anti-AES and anti-myc.

Sequences of proteins named here, by UniProt entry; tags and fusion partners are left off.
UniProt Q04724: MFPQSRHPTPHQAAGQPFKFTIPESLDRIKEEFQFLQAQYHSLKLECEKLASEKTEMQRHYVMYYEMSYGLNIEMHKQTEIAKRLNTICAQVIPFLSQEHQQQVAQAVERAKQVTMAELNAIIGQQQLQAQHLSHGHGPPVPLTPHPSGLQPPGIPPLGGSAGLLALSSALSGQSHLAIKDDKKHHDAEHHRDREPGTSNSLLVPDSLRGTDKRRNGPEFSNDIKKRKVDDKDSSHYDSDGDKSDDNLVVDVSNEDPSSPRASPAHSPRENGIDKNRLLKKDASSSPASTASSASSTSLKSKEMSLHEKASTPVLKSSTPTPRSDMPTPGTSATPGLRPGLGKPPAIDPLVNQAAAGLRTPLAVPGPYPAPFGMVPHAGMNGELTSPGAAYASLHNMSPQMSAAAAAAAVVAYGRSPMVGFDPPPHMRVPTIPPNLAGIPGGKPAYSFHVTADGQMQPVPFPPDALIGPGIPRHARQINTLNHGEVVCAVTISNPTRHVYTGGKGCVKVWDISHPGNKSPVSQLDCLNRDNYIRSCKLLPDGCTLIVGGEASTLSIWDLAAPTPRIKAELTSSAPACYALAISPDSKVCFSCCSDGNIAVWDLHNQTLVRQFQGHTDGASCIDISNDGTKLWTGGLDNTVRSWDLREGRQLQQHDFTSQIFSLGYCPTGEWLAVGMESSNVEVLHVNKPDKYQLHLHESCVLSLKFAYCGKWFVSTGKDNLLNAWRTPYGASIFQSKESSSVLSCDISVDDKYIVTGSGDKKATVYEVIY

These are yes or no findings as the source states them, for the method shown. Binding seen in cells or lysates may run through a third protein. Some entries that bind do so weakly or less than the wild type. For some assays here: Where a sequence is shown, tags or fusion partners need not be part of it.

B1: Amino-terminal Enhancer of Split (AES) protein (protein, UniProt Q08117 1-197)
chain: MMFPQSRHSGSSHLPQQLKFTTSDSCDRIKDEFQLLQAQYHSLKLECDKLASEKSEMQRHYVMYYEMSYGLNIEMHKQAEIVKRLNGICAQVLPYLSQEHQQQVLGAIERAKQVTAPELNSIIRQQLQAHQLSQLQALALPLTPLPVGLQPPSLPAVSAGTGLLSLSALGSQAHLSKEDKNGHDGDTHQEDDGEKSD
As for B1, the binding entry in assay [1] and in assay [2] was “binds” throughout.

For the origin of these results see article PMC4086906.
